Drawing on PMC7819943, “Rice protein-binding microarrays: a tool to detect cis-acting elements near promoter regions in rice”, this text covers binding signal for 42 sequences.

Chains of the proteins cited; added tags and fusions are not shown.
UniProt Q0JBA9, entry or part of it: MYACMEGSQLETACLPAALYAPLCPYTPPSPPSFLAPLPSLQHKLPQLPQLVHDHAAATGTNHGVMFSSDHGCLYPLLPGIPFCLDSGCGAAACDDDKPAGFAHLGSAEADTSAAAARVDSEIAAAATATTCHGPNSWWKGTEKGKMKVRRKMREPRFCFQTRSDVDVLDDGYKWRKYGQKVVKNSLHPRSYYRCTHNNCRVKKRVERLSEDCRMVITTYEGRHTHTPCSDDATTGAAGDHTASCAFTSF

The other results are listed elsewhere or left out.

The assay addresses OsWRKY34 (Oryza sativa, UniProt Q0JBA9 1-250). Briefly: protein-binding microarray (RPBM); PBS, 2% BSA, 51.3 ng/ul salmon testes DNA, 50 uM zinc acetate, 200 nM TF, 25 C, 1 h; high values mean tight binding. To be noted: protein: recombinant; tags: N-terminal polyhistidine and DsRed monomer fusion (pET32a); label: CyDye5-dUTP incorporated in the synthesized complementary strand; 3' TTTTT single-stranded linker to array surface; dsDNA, one strand shown. Put shortly: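 Binding signal here means per-feature fluorescence intensity in arbitrary units. The values were read on an Axon 4000B scanner after a custom Agilent array, double-stranded by primer extension with Cy5-dUTP, was incubated with 200 nM protein at 25 °C for 1 h in PBS with 2% BSA, salmon testes DNA and 50 µM zinc acetate, then washed. The proteins were transcription factors with an N-terminal polyhistidine tag and DsRed, expressed in E. coli BL21-CodonPlus and purified on Ni–NTA.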
“GGAGGGTTAGATCACCAGGGGCGGGTTGATGCAAAAAATTCGGAGTCACCTAGTGCAG”: the binding signal was 17000 fluorescence intensity (a.u.).

Regarding “CCTGCCGCTGGCGGTCTGGCGCTGGGGAGGGGATGGATGCCGGAGTCACCTAGTGCAG”, the binding signal was 8040 fluorescence intensity (a.u.).

Turning to “CAGAGGAATAGTGCATCTCTCTCTGGTGTTTTTTTGTTTTCGGAGTCACCTAGTGCAG”, the binding signal is 10600 fluorescence intensity (a.u.).

Regarding “AATTTGATTTCCTCTTCTTTTGTTGCTTAATTTCAGTCTCCGGAGTCACCTAGTGCAG”, the binding signal is 8340 fluorescence intensity (a.u.).

In the case of “TAATTGCTTGTTACTGGCAGTCGGTCCTCGATTATTTAACCGGAGTCACCTAGTGCAG”, the binding signal was 8930 fluorescence intensity (a.u.).

On to “GCTCTCGCTCGCTCGCTCTCTCGCTCGCTGCTCCCAAATGCGGAGTCACCTAGTGCAG”, for which the binding signal is 10100 fluorescence intensity (a.u.).

“CAATTTGATCCCTTCCATGCCCCTACCGTTACATTTTTCCCGGAGTCACCTAGTGCAG”: the binding signal was 8520 fluorescence intensity (a.u.).

For “GTGCTTGTGTAAATTGGTACTTCATCATTACTATATATTTCGGAGTCACCTAGTGCAG”, the binding signal was 9110 fluorescence intensity (a.u.).

On to “CTCCACTCCATCTCCATGACTCCATCGGTCCATGGACTGGCGGAGTCACCTAGTGCAG”, for which the binding signal was 8410 fluorescence intensity (a.u.).

For “GCACCCCACTTATTGCTCTCTCTCCTCTTCTTTTTCTTCCCGGAGTCACCTAGTGCAG”, the binding signal is 10900 fluorescence intensity (a.u.).

For “GTTATTTATGCTTCTCAGTTACCTAAACCAATATAATTTCCGGAGTCACCTAGTGCAG”, the binding signal is 8480 fluorescence intensity (a.u.).

With “GCTTGCGCGCGTCCTTCCAGTCGCACCAACTGGTTCCAATCGGAGTCACCTAGTGCAG”, the binding signal was 9890 fluorescence intensity (a.u.).

Consider “CACACTATCACCGCGACACCAGCTTTCTCCTCCGCAGGCACGGAGTCACCTAGTGCAG”, for which the binding signal is 8900 fluorescence intensity (a.u.).

Turning to “CACATTTCTCCTGCACGACTGCCTGGCCCATGCCCTCTCTCGGAGTCACCTAGTGCAG”, the binding signal was 8820 fluorescence intensity (a.u.).

“AAATATTCTCCGCTGTTTCTTCCGTGAACTTCGTCCATGCCGGAGTCACCTAGTGCAG”: the binding signal was 8380 fluorescence intensity (a.u.).

On to “GCCTTTTGACCAACCCATTCGTCCGGCACCCGTCCCGGCCCGGAGTCACCTAGTGCAG”, for which the binding signal was 8510 fluorescence intensity (a.u.).

For the sequence “CATCTCATCTGCGCTGTTCTTGTTGCTGTTGCTGTTCAATCGGAGTCACCTAGTGCAG”, the binding signal is 15000 fluorescence intensity (a.u.).

With “CCTCAATACCATTGACAGCACACCGCTCTCTAGACCCTACCGGAGTCACCTAGTGCAG”, the binding signal is 9070 fluorescence intensity (a.u.).

With “GGTGGGCGGGCGGGAAATATCCGCCCCGTTTTCACCCTAGCGGAGTCACCTAGTGCAG”, the binding signal was 8020 fluorescence intensity (a.u.).

As for “GTCCATGCCACACACGTCGCGTCCCATGTCGTCATGCCTCCGGAGTCACCTAGTGCAG”, the binding signal was 9710 fluorescence intensity (a.u.).

As to “TAGTCTTCTGTCATCGTCGACCGTCAAGTGTGTCTCTCGCCGGAGTCACCTAGTGCAG”, the binding signal was 15700 fluorescence intensity (a.u.).

As for “ACCACCACCGGCCGGTCTCCTTTCTGCTTGCCTCGCTCTCCGGAGTCACCTAGTGCAG”, the binding signal was 11100 fluorescence intensity (a.u.).

Take “TATATCTCGTGGTTTGTGGGTTCTTTTCACTTGTTCAGTGCGGAGTCACCTAGTGCAG”: the binding signal is 14000 fluorescence intensity (a.u.).

On to “GTAAAACTGAATAAGTGGGTGGGTATCTGTCGCTTTGCTTCGGAGTCACCTAGTGCAG”, for which the binding signal is 9200 fluorescence intensity (a.u.).

Turning to “ACTCATGTTTGTTATAACTCACAACCATTTTTAGTTTTCCCGGAGTCACCTAGTGCAG”, the binding signal is 9560 fluorescence intensity (a.u.).

With “GAATTATTAGGGAGAAAGGAGTTGCAGGGTGGGGATTGTTCGGAGTCACCTAGTGCAG”, the binding signal is 8330 fluorescence intensity (a.u.).

As for “TTGGTTTATTAGGTTTTGTTTCTCGTTCTCATCACTAAGACGGAGTCACCTAGTGCAG”, the binding signal is 10700 fluorescence intensity (a.u.).

For the sequence “TCGATTACGATCTCGTCAGTACCATATATTTCGACTACTCCGGAGTCACCTAGTGCAG”, the binding signal was 10100 fluorescence intensity (a.u.).

Take “CATGGTGCCCTTGATTCATCGATCGTCACAGCCAAGGTGACGGAGTCACCTAGTGCAG”: the binding signal is 8780 fluorescence intensity (a.u.).

Consider “CTTCCACCTGTCTGCTATTTGTTGGTGAGAATTTTAAAAACGGAGTCACCTAGTGCAG”, for which the binding signal is 8710 fluorescence intensity (a.u.).

With “GCTTGCTCGCGCTCCACTGCTCGGCCCGCCGCCGCGCTCGCGGAGTCACCTAGTGCAG”, the binding signal is 8780 fluorescence intensity (a.u.).

Take “CTCGTCTCTTCGTTCGTTCCTAGGTCCAAGTACCACCTCACGGAGTCACCTAGTGCAG”: the binding signal is 10300 fluorescence intensity (a.u.).

In the case of “GGTATGTCTGAATTTTTCGCATCATCTACAGTGCCTAAACCGGAGTCACCTAGTGCAG”, the binding signal is 9340 fluorescence intensity (a.u.).

Regarding “ATGGTTTACATTTTCAGCTTTTGCCTGTTGGCCGGTATACCGGAGTCACCTAGTGCAG”, the binding signal is 8880 fluorescence intensity (a.u.).

As to “AGCTATCCATCCACTCCTTCCCCATACCACAACCGATTCACGGAGTCACCTAGTGCAG”, the binding signal was 9680 fluorescence intensity (a.u.).

Consider “GTTGAGTTGTGTGTGAGGCGTTATAATATGTGGGACCGGGCGGAGTCACCTAGTGCAG”, for which the binding signal is 8210 fluorescence intensity (a.u.).

With “CGCTTCACTTCCCCACTAGCCACAAGGCCCACAACCCAACCGGAGTCACCTAGTGCAG”, the binding signal is 10000 fluorescence intensity (a.u.).

For “TCTCTCTCTCTCTCTCTCTCGCTCTGACACACTTGACACTCGGAGTCACCTAGTGCAG”, the binding signal is 9320 fluorescence intensity (a.u.).

Consider “ACTCCCTCCGTTTCAAAATGTTTGACACCGTTGACTTTTTCGGAGTCACCTAGTGCAG”, for which the binding signal was 18500 fluorescence intensity (a.u.).

“GCAACGCTCCATTTCAAAGAAAATCATTCAGTATTTGCCTCGGAGTCACCTAGTGCAG”: the binding signal was 8170 fluorescence intensity (a.u.).

With “TTTATTGGACTATGGATGGGATACTAACATTTCTTTTCTTCGGAGTCACCTAGTGCAG”, the binding signal was 8900 fluorescence intensity (a.u.).

As to “GTGATGTTTTGTGAATGGGGATGATTTGTTGTTGAGTTCGCGGAGTCACCTAGTGCAG”, the binding signal was 9900 fluorescence intensity (a.u.).
